In PubChem BioAssay AID2685 (National Center for Advancing Translational Sciences (NCATS), 2010):
Some of the results follow. These are further read-outs of the screen, such as a control signal, another cell line or another target. No call is given for them. Compounds called inactive in the main read-out are mostly missing here. Words in brackets tell the shape of the fitted curve; partial curves, single points and poor fits give uncertain potencies.

Test: qHTS Assay for Lipid Storage Modulators in Drosophila S3 Cells;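 on cell number change: cells counted by Cell Tracker Red CMTPX staining in the red channel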
Conditions: BODIPY lipid droplet fluorescence, 18-24 h; for cell number change: measured here: cell count max response, cells fed with added oleic acid
Outline: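 Drosophila S3 cells loaded with oleic acid (400 uM, as added) and compounds at several concentrations; lipid droplets imaged by 488-nm laser-scanning cytometry, 500–530 nm intensity and object ratio to cell channel. Percent activity normalized to 20 uM Triacsin C.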

[1] = measured here: cell number channel AC50, cells fed with added oleic acid
[2] = measured here: lipid fluorescence (Fed channel) AC50, cells fed with added oleic acid

Cc1ccc(CNS(=O)(=O)c2ccc(-c3cnc(C4CC4)o3)cc2)cc1
cell number change: -34.6%
AC50 [1]: 29.1 µM [falling, single point]

O=C(CC1=NCCNC(c2ccccc2)C1)c1ccccc1O (stereo unspecified)
cell number change: -28.5%
AC50 [2]: 32.6 µM [falling, single point]

CC(=O)N1CC(C)Oc2ccc(S(=O)(=O)NC(CC(=O)O)c3ccc(C)cc3C)cc21 (stereo unspecified)
cell number change: -2.09%
AC50 [2]: 29.1 µM [rising, single point]

CC(C)CCn1c(O)c(N=NC(=O)Cn2ccc(C(F)(F)F)n2)c2ccccc21
cell number change: -1.97%
AC50 [2]: 1.84 µM [rising, full curve, poor fit]

CCCCCc1cc(=O)oc2c(C(CCN3CCCC(C)C3)c3cc(OC)c(OC)c(OC)c3)c(OC)cc(OC)c12 (stereo unspecified)
cell number change: -72.2%
AC50 [1]: 29.1 µM [falling, single point]
AC50 [2]: 29.1 µM [falling, partial curve]

Cc1cc([N+](=O)[O-])ccc1NC(=O)c1sc2ncn(CC(=O)N3CCOCC3)c(=O)c2c1C
cell number change: 12.5%
AC50 [1]: 0.326 µM [rising, full curve]
AC50 [2]: 0.461 µM [rising, full curve]

CC1CCCCC1NC(=O)COc1ncnc2sccc12 (stereo unspecified)
cell number change: -18.3%
AC50 [2]: 1.84 µM [falling, partial curve, poor fit]

CC(C)[C@H](NC(=O)c1ccc(F)cc1)C(=O)N(C)Cc1cccs1
cell number change: 0.55%

O=C(c1ccccc1)c1cccn1CC(=O)N1CCN(c2ccccc2)CC1
cell number change: 29.1%
AC50 [2]: 29.1 µM [rising, single point]

Cc1nc2ccc(NC(=O)c3ccc(N4C(=O)CCC4=O)cc3)cc2s1
cell number change: -66%
AC50 [1]: 3.66 µM [falling, full curve, poor fit]
AC50 [2]: 6.51 µM [falling, partial curve, poor fit]

CC(C)n1nnnc1SCC(=O)Nc1ccccc1N1CCOCC1
AC50 [1]: 5.17 µM [rising, single point]
AC50 [2]: 10.3 µM [rising, partial curve]

CCN(CC(=O)Nc1cc(Cl)ccc1C)C(=O)c1ccc(=O)n(Cc2ccccc2)n1
cell number change: -43.1%

Cc1ccc(C)c(NC(=S)NNC(=O)c2csc(C(C)C)c2)c1
cell number change: -2.14%
AC50 [2]: 4.61 µM [rising, single point]

COc1ccc(CCNC(=O)CSc2ccc3ccccc3c2)cc1OC
cell number change: -56.2%
AC50 [1]: 10.3 µM [falling, partial curve]
AC50 [2]: 10.3 µM [falling, partial curve]

CC(=O)C(CC(=O)N1CCCc2ccccc21)C(=O)Nc1ccc(F)cc1 (stereo unspecified)
cell number change: -10.2%
AC50 [1]: 0.00651 µM [falling, full curve, poor fit]
AC50 [2]: 0.461 µM [falling, full curve]

Cc1ccc(S(=O)(=O)c2c(N)n(C)c3nc4ccccc4nc23)cc1
cell number change: -2.86%
AC50 [2]: 2.31 µM [rising, partial curve]

Cc1nnc(NC(=O)C(C)Sc2nnc(CNC(=O)c3ccccc3F)n2C)s1 (stereo unspecified)
cell number change: -2.01%

CC1CCCC(C)N1C(=O)CSc1nc2ncnc(N)c2[nH]1 (stereo unspecified)
cell number change: 39%
AC50 [1]: 1.3 µM [rising, partial curve, poor fit]
AC50 [2]: 5.17 µM [rising, partial curve]

CCC(CC)C(=O)Nc1c(C(=O)N2CCN(c3ccccc3)CC2)oc2ccccc12
cell number change: 79.9%
AC50 [1]: 13 µM [rising, partial curve]
AC50 [2]: 29.1 µM [rising, single point]

COc1ccc(C2C(C(C)=O)=C(C)N=c3s/c(=C\c4cc(C)n(C)c4C)c(=O)n32)c(OC)c1 (stereo unspecified)
cell number change: -99.9%
AC50 [1]: 2.91 µM [falling, full curve]
AC50 [2]: 2.31 µM [falling, full curve]

CC1Cc2ccccc2N1Cc1ccc([N+](=O)[O-])cc1 (stereo unspecified)
cell number change: 22.9%
AC50 [2]: 0.13 µM [falling, single point]

CCc1cccc(NC(=O)C2CCCN2S(=O)(=O)c2ccc3c(c2)CC(C)N3C(C)=O)c1 (stereo unspecified)
cell number change: -0.576%
AC50 [2]: 1.64 µM [rising, partial curve, poor fit]

O=C(NCCc1ccc(F)cc1)c1ccc2nccnc2c1
cell number change: 1.94%
AC50 [2]: 0.731 µM [falling, single point]

Cc1ccccc1NC(=O)c1ccc(NC(=O)c2ccco2)cc1
AC50 [1]: 2.31 µM [rising, partial curve]

O=C(CNC(=O)c1nc[nH]c1C(=O)N1CCc2ccccc2C1)OCc1ccccc1
cell number change: 26.3%
AC50 [2]: 0.116 µM [rising, full curve, poor fit]

N#CC1=C(N)Oc2n[nH]c(-c3cccs3)c2C1C1CCCCC1 (stereo unspecified)
cell number change: -88%
AC50 [2]: 29.1 µM [falling, single point]

COc1cccc(NC(=O)CSc2nnc(-c3ccoc3C)n2C)c1
cell number change: -2.38%

C=CCn1c(=O)[nH]c2cc(C(=O)N3CCN(c4ccc(C(C)=O)cc4)CC3)ccc2c1=O
cell number change: 7.73%
AC50 [1]: 3.66 µM [rising, partial curve]

Cc1ccc(SC(C)c2nc(-c3ccncc3)no2)cc1 (stereo unspecified)
cell number change: 51.5%
AC50 [1]: 8.2 µM [rising, partial curve]
AC50 [2]: 6.51 µM [rising, single point]

COc1ccc(Br)cc1S(=O)(=O)NCc1ccccn1
cell number change: -0.0652%

O=[N+]([O-])CC(c1ccc(F)cc1)c1c[nH]c2ccccc12 (stereo unspecified)
cell number change: -19.7%

Cc1ccc(O)c(-c2cc(-c3ccccc3[N+](=O)[O-])[nH]n2)c1
cell number change: -29%
AC50 [2]: 23.1 µM [falling, single point]

CC(Cc1ccccc1)C(=O)Nc1ccc(Br)cc1 (stereo unspecified)
cell number change: -30.4%
AC50 [1]: 18.4 µM [falling, single point]
AC50 [2]: 29.1 µM [falling, single point]

COC(=O)c1cc(S(=O)(=O)NCCc2ccc(C)cc2)c[nH]1
cell number change: 33.8%
AC50 [1]: 25.9 µM [rising, partial curve]

O=c1c2ccc(Cl)cc2nc2n1CC/C2=C\c1cccc(O)c1
cell number change: 61%
AC50 [1]: 29.1 µM [rising, single point]
AC50 [2]: 5.8 µM [rising, full curve]

Cc1nc2nc[nH]n2c(=O)c1NS(C)(=O)=O
cell number change: -14.4%
AC50 [2]: 3.26 µM [falling, partial curve, poor fit]
